In experiment [1] the target is HA-wtKLF6 (wild type, full length KLF6 with an additional HA tag) (human) (UniProt Q99612). Briefly: co-immunoprecipitation from cotransfected 293T cells (FLAG/HA beads), Western blot.
Experiment [2] shares this target. The experiment is described as follows: co-immunoprecipitation from cotransfected 293T cells, Western blot. (In western blotting, separated proteins are transferred to a membrane and probed.)

These are yes or no findings as the source states them, for the method shown. In cells and extracts the contact can be indirect. Some entries that bind do so weakly or less than the wild type. Where a sequence is shown, tags or fusion partners need not be part of it.

B1: FLAG-KLF6SV1 (FLAG-tagged KLF6 splice variant-1) (protein, not shown: small tags and cut ends)
chain: MDVLPMCSIFQELQIVHETGYFSALPSLEEYWQQTCLELERYLQSEPCYVSASEIKFDSQEDLWTKIILAREKKEESELKISSSPPEDTLISPSFCYNLETNSLNSDVSSESSDSSEELSPTAKFTSDPIGEVLVSSGKLSSSVTSTPPSSPELSREPSQLWGCVPGELPSPGKEKSLTDAHGKGVSGVLQEVMS
Take B1: the binding entry in experiment [1] and in experiment [2] was “binds” throughout.
